Experimental data taken from the supplement of paper PMC10849652.
This is one part of the list.

Chains of the proteins cited; added tags and fusions are not shown. Lines headed by an entry give the natural chain unless they say otherwise; changes in a name come on top.
UniProt P10746: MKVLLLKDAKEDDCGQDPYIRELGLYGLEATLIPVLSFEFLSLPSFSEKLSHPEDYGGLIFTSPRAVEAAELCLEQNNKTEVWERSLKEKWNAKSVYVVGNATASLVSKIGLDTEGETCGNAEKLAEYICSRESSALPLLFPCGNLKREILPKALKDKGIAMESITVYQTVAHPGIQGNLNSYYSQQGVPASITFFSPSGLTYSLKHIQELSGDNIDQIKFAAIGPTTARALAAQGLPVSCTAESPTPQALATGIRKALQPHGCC
UniProt O00124: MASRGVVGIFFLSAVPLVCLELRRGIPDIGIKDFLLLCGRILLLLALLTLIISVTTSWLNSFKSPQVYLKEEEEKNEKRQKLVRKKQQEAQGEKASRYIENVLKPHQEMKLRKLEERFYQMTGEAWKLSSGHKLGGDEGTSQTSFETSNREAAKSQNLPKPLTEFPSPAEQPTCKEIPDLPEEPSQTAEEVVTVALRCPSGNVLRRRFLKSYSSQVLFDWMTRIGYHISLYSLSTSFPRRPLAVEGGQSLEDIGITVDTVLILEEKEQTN
UniProt P22415: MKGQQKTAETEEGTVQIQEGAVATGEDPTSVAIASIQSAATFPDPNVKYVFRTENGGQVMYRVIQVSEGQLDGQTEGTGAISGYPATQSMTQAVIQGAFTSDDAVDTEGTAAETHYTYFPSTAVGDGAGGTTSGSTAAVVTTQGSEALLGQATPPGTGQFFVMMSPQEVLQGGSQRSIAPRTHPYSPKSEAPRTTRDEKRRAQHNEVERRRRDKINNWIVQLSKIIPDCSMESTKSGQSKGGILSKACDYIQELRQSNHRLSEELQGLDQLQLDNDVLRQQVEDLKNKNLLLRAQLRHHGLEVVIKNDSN
UniProt Q04323: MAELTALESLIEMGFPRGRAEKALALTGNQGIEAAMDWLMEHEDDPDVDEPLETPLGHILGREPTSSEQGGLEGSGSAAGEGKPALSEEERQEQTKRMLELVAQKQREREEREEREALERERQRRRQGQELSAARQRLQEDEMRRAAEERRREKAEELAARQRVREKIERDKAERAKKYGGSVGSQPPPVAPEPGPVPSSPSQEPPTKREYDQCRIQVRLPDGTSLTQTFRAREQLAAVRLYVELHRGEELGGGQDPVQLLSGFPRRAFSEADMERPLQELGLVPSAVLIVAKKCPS
UniProt Q16851: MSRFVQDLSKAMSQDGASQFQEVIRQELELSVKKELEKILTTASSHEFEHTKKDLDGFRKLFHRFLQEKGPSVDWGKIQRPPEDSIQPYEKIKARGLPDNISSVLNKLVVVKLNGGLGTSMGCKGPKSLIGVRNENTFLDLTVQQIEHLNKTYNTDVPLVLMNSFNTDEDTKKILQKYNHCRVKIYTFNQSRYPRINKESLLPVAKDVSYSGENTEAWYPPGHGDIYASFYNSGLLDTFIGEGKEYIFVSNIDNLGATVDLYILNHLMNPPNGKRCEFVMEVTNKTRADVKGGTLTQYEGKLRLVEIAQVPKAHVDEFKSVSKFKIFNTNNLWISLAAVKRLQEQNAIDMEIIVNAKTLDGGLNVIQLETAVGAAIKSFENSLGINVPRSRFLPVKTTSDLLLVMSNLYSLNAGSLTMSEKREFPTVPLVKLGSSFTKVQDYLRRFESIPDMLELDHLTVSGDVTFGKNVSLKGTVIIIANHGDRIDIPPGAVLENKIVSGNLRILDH
UniProt Q9Y3C8: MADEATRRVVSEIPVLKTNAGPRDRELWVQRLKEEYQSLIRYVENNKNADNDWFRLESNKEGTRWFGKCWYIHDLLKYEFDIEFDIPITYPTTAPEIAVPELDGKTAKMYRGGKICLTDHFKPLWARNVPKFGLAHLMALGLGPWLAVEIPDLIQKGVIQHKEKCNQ
UniProt P06132: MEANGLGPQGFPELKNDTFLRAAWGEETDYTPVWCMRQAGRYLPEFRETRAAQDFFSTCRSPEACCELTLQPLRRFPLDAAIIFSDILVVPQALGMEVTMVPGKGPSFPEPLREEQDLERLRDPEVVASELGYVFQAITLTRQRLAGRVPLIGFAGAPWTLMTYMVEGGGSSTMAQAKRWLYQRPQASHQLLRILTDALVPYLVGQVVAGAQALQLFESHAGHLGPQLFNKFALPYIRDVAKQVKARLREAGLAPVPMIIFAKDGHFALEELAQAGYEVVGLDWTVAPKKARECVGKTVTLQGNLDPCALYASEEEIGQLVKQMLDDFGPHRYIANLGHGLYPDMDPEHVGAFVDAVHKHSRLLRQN
UniProt Q96S82: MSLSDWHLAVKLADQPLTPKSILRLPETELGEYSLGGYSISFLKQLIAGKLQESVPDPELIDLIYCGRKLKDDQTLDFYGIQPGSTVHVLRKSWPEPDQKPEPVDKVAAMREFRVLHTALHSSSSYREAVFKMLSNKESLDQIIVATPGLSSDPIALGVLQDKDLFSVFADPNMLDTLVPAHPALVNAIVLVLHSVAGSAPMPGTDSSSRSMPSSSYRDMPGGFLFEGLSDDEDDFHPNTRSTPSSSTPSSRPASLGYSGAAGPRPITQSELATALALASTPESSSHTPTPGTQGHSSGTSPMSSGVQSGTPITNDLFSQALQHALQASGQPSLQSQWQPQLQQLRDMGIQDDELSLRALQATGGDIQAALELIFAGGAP
UniProt Q9H3U1: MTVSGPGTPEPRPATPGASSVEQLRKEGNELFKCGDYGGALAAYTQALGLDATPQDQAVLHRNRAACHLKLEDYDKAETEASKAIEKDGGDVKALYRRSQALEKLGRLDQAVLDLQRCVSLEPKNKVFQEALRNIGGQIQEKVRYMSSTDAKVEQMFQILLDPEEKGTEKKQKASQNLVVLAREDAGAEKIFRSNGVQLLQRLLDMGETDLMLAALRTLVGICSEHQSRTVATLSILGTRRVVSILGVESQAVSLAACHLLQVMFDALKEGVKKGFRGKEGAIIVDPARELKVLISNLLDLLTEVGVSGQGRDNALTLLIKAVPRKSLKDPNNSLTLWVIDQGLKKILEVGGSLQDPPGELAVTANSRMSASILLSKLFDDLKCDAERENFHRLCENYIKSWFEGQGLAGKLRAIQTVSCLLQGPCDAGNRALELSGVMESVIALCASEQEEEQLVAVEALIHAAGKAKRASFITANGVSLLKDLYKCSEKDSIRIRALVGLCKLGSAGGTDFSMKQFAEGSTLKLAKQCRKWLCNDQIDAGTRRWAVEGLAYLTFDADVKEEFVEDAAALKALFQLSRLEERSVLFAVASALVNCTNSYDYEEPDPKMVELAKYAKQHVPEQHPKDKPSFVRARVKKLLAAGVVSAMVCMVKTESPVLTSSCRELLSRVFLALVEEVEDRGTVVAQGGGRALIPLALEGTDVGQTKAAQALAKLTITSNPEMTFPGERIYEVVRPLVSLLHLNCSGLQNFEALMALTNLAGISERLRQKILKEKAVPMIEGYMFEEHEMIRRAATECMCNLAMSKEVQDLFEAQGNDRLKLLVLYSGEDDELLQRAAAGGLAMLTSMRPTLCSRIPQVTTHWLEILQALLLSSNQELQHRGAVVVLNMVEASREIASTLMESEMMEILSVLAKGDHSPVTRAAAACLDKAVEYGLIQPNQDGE
UniProt Q08AM6: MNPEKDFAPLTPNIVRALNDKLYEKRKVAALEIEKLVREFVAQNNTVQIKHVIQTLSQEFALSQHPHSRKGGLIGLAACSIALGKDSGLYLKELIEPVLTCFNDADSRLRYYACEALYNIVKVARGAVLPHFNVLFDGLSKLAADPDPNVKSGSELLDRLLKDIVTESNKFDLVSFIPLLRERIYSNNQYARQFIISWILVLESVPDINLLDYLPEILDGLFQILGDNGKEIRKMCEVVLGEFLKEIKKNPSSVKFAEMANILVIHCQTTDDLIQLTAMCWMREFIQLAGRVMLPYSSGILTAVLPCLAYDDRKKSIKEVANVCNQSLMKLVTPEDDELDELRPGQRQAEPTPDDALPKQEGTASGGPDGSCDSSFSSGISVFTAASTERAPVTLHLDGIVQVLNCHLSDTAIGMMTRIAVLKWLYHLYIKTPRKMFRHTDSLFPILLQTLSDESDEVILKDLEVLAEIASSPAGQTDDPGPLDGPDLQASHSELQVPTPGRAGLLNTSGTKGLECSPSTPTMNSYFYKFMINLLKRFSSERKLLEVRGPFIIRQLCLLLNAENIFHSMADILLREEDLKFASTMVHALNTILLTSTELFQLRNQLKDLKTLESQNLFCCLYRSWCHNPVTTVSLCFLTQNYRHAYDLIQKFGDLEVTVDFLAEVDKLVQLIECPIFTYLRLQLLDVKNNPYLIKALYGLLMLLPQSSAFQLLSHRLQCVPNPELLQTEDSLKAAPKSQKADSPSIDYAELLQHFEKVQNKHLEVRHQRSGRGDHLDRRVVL
UniProt P13051, whole entry, looked up: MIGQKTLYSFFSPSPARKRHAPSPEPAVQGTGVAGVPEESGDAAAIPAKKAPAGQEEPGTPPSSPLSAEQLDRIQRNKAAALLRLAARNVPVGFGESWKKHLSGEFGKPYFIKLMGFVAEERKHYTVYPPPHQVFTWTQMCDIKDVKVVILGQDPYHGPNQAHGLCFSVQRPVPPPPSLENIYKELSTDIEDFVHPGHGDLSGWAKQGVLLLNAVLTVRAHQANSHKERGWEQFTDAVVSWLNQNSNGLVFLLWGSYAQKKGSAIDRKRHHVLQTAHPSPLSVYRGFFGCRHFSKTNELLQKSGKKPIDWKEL
UniProt Q16831: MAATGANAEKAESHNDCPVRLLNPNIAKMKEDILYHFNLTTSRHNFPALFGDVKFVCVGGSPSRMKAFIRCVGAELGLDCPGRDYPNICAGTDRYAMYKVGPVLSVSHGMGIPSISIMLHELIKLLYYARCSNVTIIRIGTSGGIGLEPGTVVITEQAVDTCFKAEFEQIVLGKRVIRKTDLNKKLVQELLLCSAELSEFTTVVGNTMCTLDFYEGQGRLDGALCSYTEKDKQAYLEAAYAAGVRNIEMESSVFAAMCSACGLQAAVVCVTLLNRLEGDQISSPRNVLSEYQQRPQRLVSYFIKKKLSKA
UniProt Q8NFA0: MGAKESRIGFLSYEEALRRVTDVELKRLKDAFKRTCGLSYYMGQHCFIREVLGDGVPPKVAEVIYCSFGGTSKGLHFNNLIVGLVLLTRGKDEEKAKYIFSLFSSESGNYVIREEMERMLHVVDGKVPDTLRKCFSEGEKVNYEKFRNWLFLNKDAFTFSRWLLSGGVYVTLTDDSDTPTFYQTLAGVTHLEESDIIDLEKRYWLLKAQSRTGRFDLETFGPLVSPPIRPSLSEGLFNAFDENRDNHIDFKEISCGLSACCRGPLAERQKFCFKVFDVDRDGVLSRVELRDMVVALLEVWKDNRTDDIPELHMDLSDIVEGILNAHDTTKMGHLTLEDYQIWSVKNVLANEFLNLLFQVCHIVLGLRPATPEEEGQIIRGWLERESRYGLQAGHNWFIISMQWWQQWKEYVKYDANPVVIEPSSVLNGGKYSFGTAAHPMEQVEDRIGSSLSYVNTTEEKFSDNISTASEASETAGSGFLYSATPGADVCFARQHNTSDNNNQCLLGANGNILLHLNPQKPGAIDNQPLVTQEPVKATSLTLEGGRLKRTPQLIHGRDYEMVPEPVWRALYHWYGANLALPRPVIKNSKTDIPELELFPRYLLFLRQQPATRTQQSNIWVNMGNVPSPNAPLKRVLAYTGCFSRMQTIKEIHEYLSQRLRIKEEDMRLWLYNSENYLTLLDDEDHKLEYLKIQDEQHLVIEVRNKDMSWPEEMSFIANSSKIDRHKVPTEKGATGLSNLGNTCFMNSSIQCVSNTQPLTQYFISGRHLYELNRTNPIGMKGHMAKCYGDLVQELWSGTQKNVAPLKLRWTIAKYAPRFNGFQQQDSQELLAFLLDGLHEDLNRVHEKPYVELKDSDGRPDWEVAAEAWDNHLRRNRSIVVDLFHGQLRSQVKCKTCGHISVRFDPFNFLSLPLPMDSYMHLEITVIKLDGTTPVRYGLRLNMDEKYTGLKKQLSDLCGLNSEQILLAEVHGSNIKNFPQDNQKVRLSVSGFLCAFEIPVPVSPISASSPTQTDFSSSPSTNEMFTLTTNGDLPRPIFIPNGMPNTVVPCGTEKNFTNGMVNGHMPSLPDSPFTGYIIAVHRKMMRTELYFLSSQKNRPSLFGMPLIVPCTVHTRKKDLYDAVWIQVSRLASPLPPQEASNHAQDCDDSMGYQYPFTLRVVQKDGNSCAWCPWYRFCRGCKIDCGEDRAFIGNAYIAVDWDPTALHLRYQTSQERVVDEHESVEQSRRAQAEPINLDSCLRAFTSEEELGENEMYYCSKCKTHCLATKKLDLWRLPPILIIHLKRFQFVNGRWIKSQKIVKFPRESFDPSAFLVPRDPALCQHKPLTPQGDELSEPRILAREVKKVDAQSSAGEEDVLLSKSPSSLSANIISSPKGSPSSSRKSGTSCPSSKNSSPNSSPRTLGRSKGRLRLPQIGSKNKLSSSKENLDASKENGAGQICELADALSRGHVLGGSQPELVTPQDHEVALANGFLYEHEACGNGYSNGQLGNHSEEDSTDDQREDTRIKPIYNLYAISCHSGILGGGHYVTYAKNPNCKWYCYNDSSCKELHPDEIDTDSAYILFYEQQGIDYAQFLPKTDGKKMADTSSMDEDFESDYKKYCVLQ

Key:
Assay in all cases: log2 fold change, soluble protein after heating vs DMSO (PISA); higher = thermal stabilisation; K562 cells, 10 uM, 30 min; active = over 0.2 and 3.5 SD of the protein, either way, in both replicates (recomputed)
bafetinib = compound: Cc1ccc(NC(=O)c2ccc(CN3CC[C@H](N(C)C)C3)c(C(F)(F)F)c2)cc1Nc1nccc(-c2cncnc2)n1 [bafetinib]
Method in brief: (§1)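 K562 cells at 2×10^6 cells/mL were exposed to 10 μM compound for 30 min, then aliquots were heated for 3 min across 48°C-58°C, pooled, and extracted in PBS containing 0.5% NP-40 at 4°C. The supernatant after 21,000xg for 90 min was taken as soluble protein and measured by TMTpro 16plex LC-MS/MS with channel sums equalised. Thermal stability is reported relative to control samples, with values from duplicates. Fold changes are given on a log2 scale.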

[1] = compound: Cc1cccc(CC(=O)N2CCc3c2ccc(-c2cn(C)c4ncnc(N)c24)c3F)n1
Method in brief: as §1

nilotinib = compound: Cc1cn(-c2cc(NC(=O)c3ccc(C)c(Nc4nccc(-c5cccnc5)n4)c3)cc(C(F)(F)F)c2)cn1 [nilotinib]
Method in brief: as §1

[2] = compound: Cc1nc(Nc2n[nH]c3c2CN(C(=O)N[C@H](CN(C)C)c2ccccc2)C3(C)C)c2sccc2n1
Method in brief: as §1

dasatinib = compound: Cc1nc(Nc2ncc(C(=O)Nc3c(C)cccc3Cl)s2)cc(N2CCN(CCO)CC2)n1 [dasatinib]
Method in brief: as §1

[3] = compound: Cc1ncc(-c2ccnc(Nc3ccc(S(C)(=O)=O)cc3)n2)n1C(C)C
Method in brief: as §1

[4] = compound: Cn1cc(-c2ccc3c(c2)CCN3C(=O)Cc2cccc(C(F)(F)F)c2)c2c(N)ncnc21
Method in brief: as §1

[5] = compound: Cn1cc(-c2ccc3nnc(C(F)(F)c4ccc5ncccc5c4)n3n2)cn1
Method in brief: as §1

tipifarnib = compound: Cn1cncc1[C@@](N)(c1ccc(Cl)cc1)c1ccc2c(c1)c(-c1cccc(Cl)c1)cc(=O)n2C [tipifarnib]
Method in brief: as §1

mubritinib = compound: FC(F)(F)c1ccc(/C=C/c2nc(COc3ccc(CCCCn4ccnn4)cc3)co2)cc1 [mubritinib]
Method in brief: as §1

Measured: log2 fold change

UPF2 (UniProt Q9HAU5)
inactive: bafetinib 0.193 | [1] 0 | nilotinib -0.106 | [2] 0.142 | dasatinib -0.016 | [3] 0.061 | [4] -0.143 | [5] -0.085 | tipifarnib 0.015 | mubritinib -0.071

UBTF (UniProt P17480)
inactive: bafetinib 0.042 | [1] -0.016 | [4] -0.136 | [5] 0.024 | mubritinib 0.302

USP16 (UniProt Q9Y5T5)
inactive: bafetinib 0.487 | [1] 0.027 | nilotinib 0.008 | [2] -0.047 | dasatinib 0.033 | [3] -0.033 | [4] -0.118 | [5] 0.07 | mubritinib -0.162

USP54 (UniProt Q70EL1)
inactive: bafetinib -0.156 | [1] -0.361 | dasatinib -0.034 | tipifarnib 0.361 | mubritinib 0.011

UROS (UniProt P10746)
inactive: bafetinib -0.022 | [1] 0.026 | nilotinib -0.022 | [2] -0.125 | dasatinib -0.085 | [3] 0.002 | [4] 0.099 | [5] -0.054 | tipifarnib -0.064 | mubritinib 0.015

UBXN8 (UniProt O00124)
inactive: bafetinib -0.112 | [1] -0.086 | dasatinib -0.056 | [4] 0.017 | [5] -0.439 | tipifarnib 0.048

UBQLN4 (UniProt Q9NRR5)
inactive: bafetinib -0.033 | [1] -0.038 | nilotinib 0.019 | [2] -0.005 | dasatinib 0.063 | [3] 0.001 | [4] 0.009 | [5] -0.026 | tipifarnib 0.011 | mubritinib 0.015

UNK (UniProt Q9C0B0)
inactive: bafetinib -0.088 | [1] -0.026 | nilotinib -0.061 | [2] -0.208 | dasatinib -0.026 | [3] -0.033 | [4] -0.011 | tipifarnib 0.118 | mubritinib -0.041

USP39 (UniProt Q53GS9)
inactive: bafetinib 0.037 | [1] -0.04 | nilotinib 0.001 | [2] -0.075 | dasatinib 0.036 | [3] 0.01 | [4] -0.055 | [5] -0.065 | tipifarnib 0.074 | mubritinib -0.017

UBR4 isoform 2 (UniProt Q5T4S7)
inactive: bafetinib 0.064 | [1] 0.082 | nilotinib -0.09 | [2] 0.023 | dasatinib -0.045 | [3] 0.016 | [4] -0.106 | [5] -0.029 | tipifarnib -0.069 | mubritinib -0.008

USF1 (UniProt P22415)
inactive: bafetinib -0.002 | [1] 0.094 | nilotinib -0.003 | [2] -0.001 | [3] -0.007 | [5] 0.003 | tipifarnib 0.02 | mubritinib -0.024

UBXN1 (UniProt Q04323)
inactive: bafetinib -0.012 | [1] 0.012 | nilotinib -0.017 | [2] -0.019 | dasatinib -0.046 | [3] -0.007 | [4] -0.025 | [5] 0.05 | tipifarnib -0.016 | mubritinib 0.057

USP7 (UniProt Q93009)
inactive: bafetinib -0.018 | [1] 0.097 | nilotinib -0.076 | [2] -0.113 | dasatinib -0.272 | [3] -0.011 | [4] 0.101 | [5] 0.153 | tipifarnib -0.139 | mubritinib 0.068

UGP2 (UniProt Q16851)
inactive: bafetinib -0.012 | [1] -0.014 | nilotinib 0.037 | [2] -0.015 | dasatinib 0.023 | [3] -0.008 | [4] 0.025 | [5] 0.043 | tipifarnib -0.021 | mubritinib 0.029

UBE3C (UniProt Q15386)
inactive: bafetinib -0.027 | [1] 0.031 | nilotinib -0.047 | [2] -0.096 | dasatinib -0.068 | [3] 0.017 | [4] -0.025 | [5] -0.097 | tipifarnib -0.054 | mubritinib -0.005

UEVLD (UniProt Q8IX04)
inactive: bafetinib 0.25 | [1] -0.062 | nilotinib -0.05 | [2] -0.116 | dasatinib -0.195 | [3] 0.093 | [4] -0.103 | mubritinib -0.203

VCL (UniProt P18206)
inactive: bafetinib 0.001 | [1] 0.009 | nilotinib 0.015 | [2] -0.001 | dasatinib 0.057 | [3] 0 | [4] 0.005 | [5] 0.022 | tipifarnib 0.019 | mubritinib 0.018

UFC1 (UniProt Q9Y3C8)
inactive: bafetinib -0.004 | [1] 0.008 | nilotinib 0.026 | [2] 0.018 | dasatinib 0.026 | [3] -0.004 | [4] 0.04 | [5] 0.02 | tipifarnib -0.007 | mubritinib -0.029

UROD (UniProt P06132)
inactive: bafetinib -0.049 | [1] 0 | nilotinib 0.052 | [2] -0.016 | dasatinib 0.038 | [3] 0.006 | [4] 0.054 | [5] -0.038 | tipifarnib -0.049 | mubritinib -0.009

UBL7 (UniProt Q96S82)
inactive: bafetinib -0.037 | [1] -0.077 | nilotinib -0.008 | [2] -0.015 | dasatinib 0 | [3] -0.015 | [4] 0.097 | [5] 0.047 | tipifarnib 0.01 | mubritinib 0.108

UNC45A (UniProt Q9H3U1)
inactive: bafetinib 0.101 | [1] 0.1 | nilotinib -0.13 | [2] -0.126 | dasatinib -0.111 | [3] 0.057 | [4] -0.046 | [5] -0.043 | tipifarnib -0.117 | mubritinib -0.047

UBQLN2 (UniProt Q9UHD9)
inactive: bafetinib -0.005 | [1] 0.05 | nilotinib -0.014 | [2] -0.018 | dasatinib 0.038 | [3] -0.011 | [4] 0.027 | [5] 0.04 | tipifarnib -0.087 | mubritinib 0.058

Retrieved one by one from above, 2 records:
UBQLN2 (UniProt Q9UHD9)
inactive: bafetinib -0.005 | [1] 0.05 | nilotinib -0.014 | [2] -0.018 | dasatinib 0.038 | [3] -0.011 | [4] 0.027 | [5] 0.04 | tipifarnib -0.087 | mubritinib 0.058

UROD (UniProt P06132)
inactive: bafetinib -0.049 | [1] 0 | nilotinib 0.052 | [2] -0.016 | dasatinib 0.038 | [3] 0.006 | [4] 0.054 | [5] -0.038 | tipifarnib -0.049 | mubritinib -0.009

The list goes on:

UBQLN1 (UniProt Q9UMX0)
inactive: bafetinib -0.003 | [1] -0.013 | nilotinib -0.014 | [2] 0.019 | dasatinib 0.003 | [3] -0.009 | [4] 0.078 | [5] 0.007 | tipifarnib 0.009 | mubritinib 0.027

VAC14 (UniProt Q08AM6)
inactive: bafetinib -0.045 | [1] -0.005 | nilotinib -0.02 | [2] 0.041 | dasatinib -0.078 | [3] -0.054 | [4] 0.058 | [5] 0.038 | tipifarnib 0.016 | mubritinib 0.044

UTP18 (UniProt Q9Y5J1)
inactive: bafetinib 0.346 | [1] 0.07 | nilotinib 0.008 | [2] 0.159 | [3] 0.067 | [5] -0.197

UNC119B (UniProt A6NIH7)
inactive: bafetinib 0.424 | [1] -0.006 | nilotinib 0.16 | [2] -0.077 | dasatinib 0.069 | [3] 0.173 | [4] 0.428 | [5] -0.089 | tipifarnib -0.143 | mubritinib 0.14

URM1 isoform 2 (UniProt Q9BTM9)
inactive: bafetinib -0.085 | [1] 0.2 | nilotinib 0.091 | [2] -0.082 | dasatinib -0.432 | [3] 0.018 | [5] 0.127 | mubritinib 0.088

UNG (UniProt P13051)
inactive: bafetinib 0.002 | [1] -0.016 | dasatinib -0.185 | [4] -0.004 | mubritinib 0.139

UBN2 (UniProt Q6ZU65)
inactive: nilotinib -0.027 | [2] 0.003 | [3] 0.128 | [4] -0.007

UPP1 (UniProt Q16831)
inactive: tipifarnib 0.064

USP32 (UniProt Q8NFA0)
inactive: [1] 0.011 | nilotinib -0.004 | [2] 0.081 | dasatinib -0.046 | [3] 0.053 | [4] -0.074 | [5] 0.012 | tipifarnib -0.336

Taken from the entries so far (2 entries):
UPP1 (UniProt Q16831)
inactive: tipifarnib 0.064

USP32 (UniProt Q8NFA0)
inactive: [1] 0.011 | nilotinib -0.004 | [2] 0.081 | dasatinib -0.046 | [3] 0.053 | [4] -0.074 | [5] 0.012 | tipifarnib -0.336
